Test results reported in patent US20030157685A1.
These are yes or no findings as the source states them, for the method shown. In cells and extracts the contact can be indirect. Some results given as binding are weak or reduced against the parent protein; the word gives no strength.

Columns and labels:
[1] = target: Mxi2 as a hemaglutinin epitope-tagged fusion (Mxi2-HA), expressed in 293 cells (UniProt Q16539); assay: co-immunoprecipitation from 293 cells with anti-Omi antibodies; phospho-specific antibody blot
[2] = target: Mxi2 as a hemaglutinin epitope-tagged fusion (Mxi2-HA), expressed in 293 cells (UniProt Q16539); assay: co-immunoprecipitation from 293 cells with anti-Omi polyclonal antibody, anti-HA blot

B1: endogenous Omi protein precipitated from 293 cells with the anti-Omi polyclonal antibody (enzyme)
chain: MFFNYFAYMAQCTPLFAFTVFHLIWGCNNNFFHDYDVFFLPFTVFNGLVNGLEGNSIPSPRKEFSACAIGCKVYITGGRGAGWSLRAWRALGGIRWGRRPRLTPDLRALLTSGTSDPRARVTYGTPSLWARLSVGVTEPRACLTSGTPGPRAQLTAVTPDTRTREASENSGTRSRAWLAVALGAGGAVLLLLWGGGRGPPAVLAAVPSPPPASPRSQYNFIADVVEKTAPAVVYIEILDRHPFLGREVPISNGSGFVVAADGLIVTNAHVVADRRRVRVRLLSGDTYEAVVTAVDPVADIATLRIQTKEPLPTLPLGRSADVRQGEFVVAMGSPFALQNTITSGIVSSAQRPARDLGLPQTNVEYIQTDAAIDFGNSGGPLVNLDGEVIGVNTMKVTAGISFAIPSDRLREFLHRGEKKNSSSGISGSQRRYIGVMMLTLSPSILAELQLREPSFPDVQHGVLIHKVILGSPAHRAGLRPGDVILAIGEQMVQNAEDVYEAVRTQSQLAVQIRRGRETLTLYVTPEVTE
- binding [1]: binds
- binding [2]: binds
